# Reference: PubChem BioAssay AID1259424 (University of Nebraska Medical Center, 2018)
# Purpose: 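Find knockdowns that reproduce the expression shifts seen after KSR1 loss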 (primary screen)
# Cells: human HCT116 colon cancer cells
# Reagents: siRNA pool against human genes, 50 nM
# Detection: 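Log2 levels of six mRNAs (branched-DNA multiplex), adjusted by two reference genes and the non-targeting median, then scored against the average KSR1 knockdown pattern as Pearson r and euclidean distance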
# Scale: mean correlation with KSR1 profile: higher = expression change more like KSR1 knockdown; mean distance from KSR1 profile: higher = expression change less like KSR1 knockdown
# The deposit covers about 14,000 reagents; this is an unselected part. 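Higher correlation or smaller distance means closer resemblance to KSR1 loss; control wells, including KSR1 knockdowns, recur on many plates.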 Further read-outs or replicates are left out here. Reagent sequences are not shown. Not stated in the record: the time to read-out.
target,mean correlation with KSR1 profile,mean distance from KSR1 profile
"CROCC (ciliary rootlet coiled-coil, rootletin)",-0.0718,2.82
GOLPH3 (golgi phosphoprotein 3),-0.0273,3.27
TMTC1 (transmembrane O-mannosyltransferase targeting cadherins 1),0.642,2.91
DHX33 (DEAH-box helicase 33),0.0287,2.76
KLK10 (kallikrein related peptidase 10),0.674,3.32
MTRF1L (mitochondrial translation release factor 1 like),0.256,2.56
IDH3A (isocitrate dehydrogenase (NAD(+)) 3 catalytic subunit alpha),0.593,1.59
CAPS2 (calcyphosine 2),0.0959,2.97
MAML2 (mastermind like transcriptional coactivator 2),0.0156,1.62
JAK1 (Janus kinase 1),0.634,1.09
IL17B (interleukin 17B),-0.514,1.87
BTNL2 (butyrophilin like 2),0.00474,2.72
HYAL2 (hyaluronidase 2),-0.0273,1.79
ABCF1 (ATP binding cassette subfamily F member 1),0.0359,1.99
RMND1 (required for meiotic nuclear division 1 homolog),-0.582,3.27
ZNF581 (zinc finger protein 581),-0.46,2.56
PLD2 (phospholipase D2),-0.309,3.48
CTRC (chymotrypsin C),-0.549,1.75
DACH2 (dachshund family transcription factor 2),0.932,0.919
RRAS2 (RAS related 2),-0.0318,1.94

2 entries from above, set out differently.
target | mean correlation with KSR1 profile | mean distance from KSR1 profile
IL17B (interleukin 17B) | -0.514 | 1.87
BTNL2 (butyrophilin like 2) | 0.00474 | 2.72
